Paper PMC10163288
The other results are listed elsewhere or left out.

B1: il10ra_site1_normal_mot_e1dd4851c59bc1cdde016f988f6856bd_0001_1_000000200_0001_16_31_H_._HEEHE_2159_0002_0000200020_0000001_0_af2pred_0001 (protein)
chain: SDEELAALAIRLVAEKAGVPSVEVTTSNNEIHVTLEGDDRAVERAERQIRFLSEAANVPVTIEIE
B2: il10ra_site1_sap_24_mot_HHH_b1_05826_af2_000000294_0001_1_18_H_._HHH_b1_05303_0001_0000100002_0000001_0_0001_af2pred_0001 (protein)
chain: SSSSDEKKAFRLYIEAFLALEKGNPEEARELLEEALKIAEELGDEALVRAIRHLLELVERKSSSS
B3: il10ra_site1_normal_mot_HHH_b1_01821_000000158_0001_23_39_H_._HHH_b2_01117_af2_0001_0000100001_0000002_0 (protein)
chain: SSSSSEEEERVEELIKELEELLRRGDFERASRVAQEALRLAFRLNNPELLQAIWRVFKEGSSSSS
B4: il10ra_site1_normal_mot_HHH_b1_05357_000000034_0001_23_39_H_._HHH_b2_02453_0001_0000200008_0000001_0_af2pred_0001 (protein)
chain: SSSSDVEEELEELLEEAKRIEDLHRANYVLARAFALASRRKDPELEEEVKEAAKEITERGSSSSS
B5: il10ra_site1_sap_22_mot_HHH_b2_04679_000000194_0001_21_38_H_._HHH_b1_05937_af2_0001_0000100001_0000001_0_0001_af2pred_0001 (protein)
chain: SSSSSEEEAVKLLARAIRHLIKLGDEEAAKLALEILERLARQLNDEEAEEIVEELQKLLESSSSS
B6: il10ra_site1_normal_mot_HHH_b2_06255_000000043_0001_1_20_H_._HHH_b2_01548_af2_0001_0000300011_0000001_0 (protein)
chain: SSSSSSEEEVKELLEEARELHERGNPDEAFKVLRRAIEIAAENNDPELQKLVIRVSRELVSSSSS
B7: il10ra_site1_sap_21_mot_HHH_b2_07579_000000275_0001_1_19_H_._HHH_b2_05428_0001_0000300025_0000001_0_0001 (protein)
chain: SSSSTLAQEVAELLRRVVELDNEGDKEEAERLLEEAKELAEEANSDVLRIQVEYLERLLNSSSSS
B8: il10ra_site1_normal_mot_HHH_b2_01649_af2_000000191_0001_40_56_H_._HHH_b2_05746_0001_0000300010_0000001_0 (protein)
chain: SSSSSSSEVSLRAAKVALEALLELGDEEMFEVALRFHESLLKDAGNPELAEELRRFAEELSSSSS
B9: il10ra_site1_sap_26_mot_HHH_b2_08231_af2_000000290_0001_1_18_H_._HHH_b1_03552_af2_0001_0000800016_0000002_0_0001 (protein)
chain: SSSSSEEQRELFELLRRVAELDHEGNPEEAREVLKEAQELAEELGNDVARMQIEYLQKHLSSSSS
B10: il10ra_site1_normal_mot_HHH_b1_02080_af2_000000254_0001_23_39_H_._HHH_b1_03859_0001_0000800012_0000001_0_af2pred_dldesign_0_af2pred (protein)
chain: SSSSDEALLQRARELHLRASAAIAAGNKEEAAKLLAELEKLAEETDDPDIKRALDYLKAVASSSS
B11: il10ra_site1_sap_15_mot_HHH_b1_01307_000000115_0001_1_18_H_._HHH_b2_08110_0001_0000100001_0000001_0_0001 (protein)
chain: SSSSDEKWEEFQRILEKAAELKNSGNPEEAKKLLEELEEELEELGNWIALRAARHLLRAISSSSS
B12: il10ra_site1_sap_17_mot_HHH_b1_04514_000000156_0001_1_18_H_._HHH_b2_07389_af2_0001_0000100005_0000001_0_0001 (protein)
chain: SSSSDFEEYIEMTRMFAEALARAGDPEAAKKMIKAAIDMARRGNNEELLEELEELLERLRSSSSS
B13: il10ra_site1_sap_24_mot_HHH_b1_05099_000000057_0001_40_58_H_._HHH_b1_05528_0001_0000100006_0000001_0_0001_af2pred_0001 (protein)
chain: SSSSSSDVEEAVRKLLHAAKQISDEEALKLALRDAERIARANNDEELEELVEKVKEELSSSSSSS
B14: il10ra_site1_normal_mot_HHH_b2_00984_000000042_0001_1_20_H_._HHH_b1_00336_0001_0000500031_0000002_0 (protein)
chain: SSSSSEEEVEELLREAEELLENGNPQEAIEVLARASQIAHRASNEELLQKVWELIKKIAEASSSS
B15: il10ra_site1_normal_mot_HHH_b2_01447_af2_000000258_0001_1_20_H_._HHH_b2_02600_af2_0001_0000100009_0000002_0_af2pred_0001 (protein)
chain: SSSSSTEEVMELARRAAELLNEGDPEEAQRVAEEAVELAEELGNFALIASARFVLEIIERSSSSS
B16: il10ra_site1_sap_18_mot_HHH_b1_00999_000000080_0001_41_55_H_._HHH_b1_01900_0001_0000200017_0000001_0_0001 (protein)
chain: DEEVLEEVEKEAGGDPERILELLLEIAEERGRFDPQQLKAAERFIRAAIELNTPSVELMLRALAA
B17: il10ra_site1_normal_mot_HHH_b1_06816_000000239_0001_1_19_H_._HHH_b1_07754_0001_0000100002_0000001_1 (protein)
chain: SSSSSSDREEEAQELLEELKEIPDPDERFKLAREAIELAVEAGDPELARRISRLAAELSSSSSSS
B18: il10ra_site1_normal_mot_HHH_b1_00999_000000080_0001_41_55_H_._HHH_b2_02899_0001_0000400029_0000001_0 (protein)
chain: SSSSDLEEEVEELLEEAERIEDPREATELLQEATHLALRAQDPELLKLVWEVVQEIGKLLSSSSS
B19: il10ra_site1_normal_mot_2c1a291787c6f40772924d4e9068d803_0001_af2_000000222_0001_34_48_H_._HHH_b1_08635_0001_0000300024_0000002_0_af2pred_dldesign_0_af2pred (protein)
chain: SSSSSSEVEALLKQLAAAASKVSPEKAAKLYDTMVEVHRLLQAGKPEEALALAQAALAEVSSSSS
B20: il10ra_site1_normal_mot_HHH_b1_02997_000000220_0001_39_52_H_._HHH_b1_02223_af2_0001_0000200006_0000002_0 (protein)
chain: SSSSSNEAEEVYELIREALQLLHEGDEEEAKEVLEEARELAEQLGNVNALWNVRYVLRQLSSSSS
B21: il10ra_site1_normal_mot_HHH_b2_04679_000000194_0001_21_38_H_._HHH_b2_02732_0001_0000500047_0000001_0 (protein)
chain: SSSSSDEEVRERVEELLERLEKVDPQEAYELLREAIELASENNDPELQREILRALREWLTSSSSS
B22: il10ra_site1_sap_21_mot_10a13a28c4ba12e342f6adf7edc157b2_0001_1_000000237_0001_51_65_H_._HHH_b2_02475_0001_0000100002_0000001_0_0001 (protein)
chain: SSSSDQERAVELMLKRLKHLVKQRNEEYFRQAVRFIRALIEWLGDPRLEELLEEIEEKFEESSSS
B23: il10ra_site1_normal_mot_HHH_b2_00837_af2_000000287_0001_40_54_H_._HHH_b2_01069_af2_0001_0000200019_0000002_0 (protein)
chain: SSSSDEEERIKKLIEEVEELLEEGDPEEALELLFEATHFALELGNAELLREIWELVRSLKSSSSS
B24: il10ra_site1_normal_mot_b26a303360aa2756ef5b79665ce52f45_0001_000000179_0001_1_11_H_._HHH_b1_01865_0001_0000100011_0000002_1 (protein)
chain: SSSSSSLEEIYKLIREAAELLYEGNPEEAREVAEEAEELAERANNPVFLFSIRHLLRDINSSSSS
B25: il10ra_site1_normal_mot_b26a303360aa2756ef5b79665ce52f45_0001_000000179_0001_1_11_H_._HHH_b1_07761_0001_0000200034_0000001_0 (protein)
chain: SSSSSEESQELYELSRRAAELLYEGNPEEAEELLEEAERLAERNNNFVFLFNIRHLLRDVKSSSS
B26: il10ra_site1_normal_mot_HHH_b2_07440_af2_000000021_0001_1_18_H_._HHH_b1_07357_0001_0000400038_0000002_0 (protein)
chain: SSSSDEILQEILELSLEAFRLALRGNPEEAREVLEEALELAREEGNEQLVRVLEDLLRALSSSSS
B27: il10ra_site1_normal_mot_2c1a291787c6f40772924d4e9068d803_0001_af2_000000187_0001_34_48_H_._HHH_b2_05273_0001_0000600026_0000001_0_af2pred_0001 (protein)
chain: SSSSDKHEVLQLTARAAALADREGDKETVKRLFELLLELYVRGDPELREELEELAEELLGSSSSS
B28: il10ra_site1_sap_16_mot_HHH_b1_06978_af2_000000172_0001_1_16_H_._HHH_b1_07175_af2_0001_0000600013_0000001_0_0001 (protein)
chain: SSSSDRYEEVKRVIERAIELLREGNPEEAERLLEELAEKLEELGDWSALHAVEHLARVVGSSSSS
B29: il10ra_site1_normal_mot_HHH_b1_06789_af2_000000041_0001_1_20_H_._HHH_b2_04736_0001_0000300026_0000001_0_af2pred_0001 (protein)
chain: SSSSTAAEADVRIAFRAAKRAIEQGDEELAQKLLKLMERSARLANDPELEELAEEIERLLKSSSS
B30: il10ra_site1_sap_19_mot_HHH_b2_06480_af2_000000075_0001_1_18_H_._HHH_b2_06039_0001_0000200014_0000002_0_0001 (protein)
chain: SSSSDEEEEELYRLIARLARLLIRGDEEKVRELLEELRRLAEELNDEAAEKAVEIIEQALSSSSS
B31: il10ra_site1_normal_mot_HHH_b1_05083_af2_000000148_0001_42_57_H_._HHH_b2_07916_af2_0001_0000200027_0000001_0_af2pred_0001 (protein)
chain: SSSSSEEQEELIELLRRLAELVREGDEEEVQKLAEEAERLAKELNNELIEVQLEFILKTLRSSSS
B32: il10ra_site1_normal_mot_6bb093d23f5042b6c551c363657da53b_0001_1_000000153_0001_51_65_H_._HHH_b2_00812_af2_0001_0000900073_0000001_0 (protein)
chain: SSSSSEEEAEKLFEEAEEALKRGDLEEAIELLQKLSRLVVKLGDEELTRLVFELAKLIRELSSSS
B33: il10ra_site1_normal_mot_HHH_b1_06994_000000193_0001_40_55_H_._HHH_b1_03771_af2_0001_0000300015_0000001_0 (protein)
chain: SSSSDQEEELLRAAVRLIEQALENGDPRAARFLIISAKILAKELGDEETLEELEKLEEEVDSSSS
B34: il10ra_site1_sap_11_mot_HHH_b2_01447_af2_000000258_0001_1_20_H_._HHH_b1_02883_0002_0000100003_0000001_0_0001 (protein)
chain: SSSSDELDQEALRLSLEAFRLALRGNPEEARKVVEEAEELAERANDERLLKILETLLRALSSSSS
B35: il10ra_site1_sap_20_mot_HHH_b2_05540_000000178_0001_1_18_H_._HHH_b1_07555_0001_0000200022_0000001_0_0001_af2pred_0001 (protein)
chain: SSSSDAKEWIVRLALATARILAERGDEEAARRALEIAERSAKELGDPELEREVEELLEELRSSSS
B36: il10ra_site1_normal_mot_HHH_b2_00093_af2_000000025_0001_40_54_H_._HHH_b2_06470_0001_0000500025_0000002_0_af2pred_0001 (protein)
chain: SSSSDKEEELEELLEEVEEAVRRGDEQEAMRLLLEAAKLAKEAEDEEVLERLAELLRLLFSSSSS
B37: il10ra_site1_normal_mot_HHH_b2_02116_af2_000000165_0001_41_55_H_._HHH_b1_00232_0002_0000100001_0000002_0_af2pred_dldesign_0_af2pred (protein)
chain: SSSSSDKAARAARLVACCRQALATAPPELRRAAAETYAEELEHLGFPEEAAAVRRELELLSSSSS

target: il10ra, Q13651; experiment: yeast display titration

Apparent Kd, inactive:
B1 no binding seen
B2 no binding seen
B3 no binding seen
B4 no binding seen
B5 no binding seen
B6 no binding seen
B7 no binding seen
B8 no binding seen
B9 no binding seen
B10 no binding seen
B11 no binding seen
B12 no binding seen
B13 no binding seen
B14 no binding seen
B15 no binding seen
B16 no binding seen
B17 no binding seen
B18 no binding seen
B19 no binding seen
B20 no binding seen
B21 no binding seen
B22 no binding seen
B23 no binding seen
B24 no binding seen
B25 no binding seen
B26 no binding seen
B27 > 93.4 nM
B28 no binding seen
B29 no binding seen
B30 no binding seen
B31 no binding seen
B32 no binding seen
B33 no binding seen
B34 no binding seen
B35 no binding seen
B36 no binding seen
B37 no binding seen

Looked up one by one from the entries so far:
Apparent Kd, inactive:
B8 no binding seen
B14 no binding seen
